{"source": "patent US20050227296A1", "about": "“Method for indentifying integrin antagonists” (The General Hospital Corporation, a Massachusetts …, priority 1988, published 2005)", "system": "rNIF", "assay": "Direct binding of biotinylated rNIF to immobilized A-domain peptides", "parameters": "species or system Ancylostoma caninum", "conditions": "peptide adsorbed to microtiter plates", "note": "At least one peptide structure holds a part that was inferred or is arguable (an end, a ring closure or a residue). Where a SMILES comes first, the peptide text is derived from it."}
{"smiles": "CC[C@H](C)[C@H](NC(=O)[C@H](CCCCN)NC(=O)[C@H](Cc1ccccc1)NC(=O)[C@H](C)NC(=O)[C@@H](N)CC(N)=O)C(=O)N[C@@H](CC(C)C)C(=O)N[C@H](C(=O)N[C@H](C(=O)N[C@H](C(=O)N[C@H](C(=O)N[C@@H](CC(=O)O)C(=O)NCC(=O)N[C@@H](CCC(=O)O)C(=O)N[C@@H](CCCCN)C(=O)O)[C@@H](C)O)[C@@H](C)CC)C(C)C)C(C)C", "note": "[A7] (H-NAFKILVVITDGEK-OH)", "values": [{"measurement": "direct binding of biotinylated rNIF to immobilized peptide", "value": "bound"}]}
